Some of the results follow.
Compound: Cc1cc(ccc1-c1ccccc1)C(=O)N1CCCN(CC1)C(=O)CCl [compound 10]
Assay: probe-labelled cysteine peptide fold change vs DMSO (competition) (log2 fold change); higher = less target engagement (more negative = stronger competition)
Details: 10 µM; THP-1; incubation time: 4 h
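Further: competitive profiling in live THP-1 cells: cysteine peptides tagged with an iodoacetamide desthiobiotin (IA-DTB) probe, intensity after compound treatment relative to DMSO-treated cells.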

By UniProt entry, the sequences of proteins in these tests, tags left out. Where a name states a change or a piece, a line headed by the entry shows the natural chain unless it says otherwise.
UniProt A0PK00: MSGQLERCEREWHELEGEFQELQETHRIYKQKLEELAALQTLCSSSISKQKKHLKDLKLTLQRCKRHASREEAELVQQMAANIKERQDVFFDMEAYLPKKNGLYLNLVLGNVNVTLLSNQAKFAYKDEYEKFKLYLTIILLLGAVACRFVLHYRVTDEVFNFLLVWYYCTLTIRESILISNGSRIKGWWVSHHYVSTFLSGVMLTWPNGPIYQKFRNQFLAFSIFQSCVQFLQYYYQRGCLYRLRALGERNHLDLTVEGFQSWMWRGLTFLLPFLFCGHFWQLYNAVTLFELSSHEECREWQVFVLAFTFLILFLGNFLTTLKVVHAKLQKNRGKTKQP
UniProt P11388: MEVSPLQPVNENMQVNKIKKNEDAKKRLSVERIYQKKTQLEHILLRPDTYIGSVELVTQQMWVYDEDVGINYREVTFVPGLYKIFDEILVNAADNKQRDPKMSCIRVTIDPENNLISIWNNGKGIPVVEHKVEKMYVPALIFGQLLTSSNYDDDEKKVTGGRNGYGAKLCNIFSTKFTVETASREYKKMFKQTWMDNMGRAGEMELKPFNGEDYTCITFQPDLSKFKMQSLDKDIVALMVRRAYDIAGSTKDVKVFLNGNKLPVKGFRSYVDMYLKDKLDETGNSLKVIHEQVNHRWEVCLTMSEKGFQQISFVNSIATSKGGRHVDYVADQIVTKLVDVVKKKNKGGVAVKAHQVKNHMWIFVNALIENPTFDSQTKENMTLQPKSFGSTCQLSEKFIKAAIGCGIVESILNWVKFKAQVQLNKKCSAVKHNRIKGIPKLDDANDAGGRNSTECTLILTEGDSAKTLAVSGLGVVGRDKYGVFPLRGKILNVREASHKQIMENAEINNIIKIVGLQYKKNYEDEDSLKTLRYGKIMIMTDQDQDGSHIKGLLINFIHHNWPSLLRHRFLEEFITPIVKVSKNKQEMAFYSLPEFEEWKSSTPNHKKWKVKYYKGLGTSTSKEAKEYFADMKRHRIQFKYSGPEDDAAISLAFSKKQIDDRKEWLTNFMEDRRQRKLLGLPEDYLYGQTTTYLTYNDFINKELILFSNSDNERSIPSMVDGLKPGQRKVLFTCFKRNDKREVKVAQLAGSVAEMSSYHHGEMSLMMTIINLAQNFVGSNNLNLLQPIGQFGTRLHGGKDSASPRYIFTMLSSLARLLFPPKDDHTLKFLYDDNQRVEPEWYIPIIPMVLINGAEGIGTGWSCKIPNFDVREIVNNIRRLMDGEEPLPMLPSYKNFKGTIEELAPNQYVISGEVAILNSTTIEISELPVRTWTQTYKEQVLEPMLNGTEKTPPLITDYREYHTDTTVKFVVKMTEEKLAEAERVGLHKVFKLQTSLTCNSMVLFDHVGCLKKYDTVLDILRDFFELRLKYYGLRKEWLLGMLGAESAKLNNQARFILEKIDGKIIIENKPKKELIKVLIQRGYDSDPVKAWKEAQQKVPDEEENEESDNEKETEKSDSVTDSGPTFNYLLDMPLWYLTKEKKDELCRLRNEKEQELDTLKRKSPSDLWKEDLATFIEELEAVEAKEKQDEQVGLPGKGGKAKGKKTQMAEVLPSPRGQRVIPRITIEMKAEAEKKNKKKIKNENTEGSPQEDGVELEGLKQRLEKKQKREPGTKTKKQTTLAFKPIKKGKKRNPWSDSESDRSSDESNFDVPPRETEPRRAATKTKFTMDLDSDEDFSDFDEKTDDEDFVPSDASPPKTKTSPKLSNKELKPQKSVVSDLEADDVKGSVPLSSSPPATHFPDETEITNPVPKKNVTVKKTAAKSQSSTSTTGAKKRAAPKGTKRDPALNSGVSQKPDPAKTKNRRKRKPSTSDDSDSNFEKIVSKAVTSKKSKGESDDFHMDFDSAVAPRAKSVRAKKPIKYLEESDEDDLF
UniProt Q02880: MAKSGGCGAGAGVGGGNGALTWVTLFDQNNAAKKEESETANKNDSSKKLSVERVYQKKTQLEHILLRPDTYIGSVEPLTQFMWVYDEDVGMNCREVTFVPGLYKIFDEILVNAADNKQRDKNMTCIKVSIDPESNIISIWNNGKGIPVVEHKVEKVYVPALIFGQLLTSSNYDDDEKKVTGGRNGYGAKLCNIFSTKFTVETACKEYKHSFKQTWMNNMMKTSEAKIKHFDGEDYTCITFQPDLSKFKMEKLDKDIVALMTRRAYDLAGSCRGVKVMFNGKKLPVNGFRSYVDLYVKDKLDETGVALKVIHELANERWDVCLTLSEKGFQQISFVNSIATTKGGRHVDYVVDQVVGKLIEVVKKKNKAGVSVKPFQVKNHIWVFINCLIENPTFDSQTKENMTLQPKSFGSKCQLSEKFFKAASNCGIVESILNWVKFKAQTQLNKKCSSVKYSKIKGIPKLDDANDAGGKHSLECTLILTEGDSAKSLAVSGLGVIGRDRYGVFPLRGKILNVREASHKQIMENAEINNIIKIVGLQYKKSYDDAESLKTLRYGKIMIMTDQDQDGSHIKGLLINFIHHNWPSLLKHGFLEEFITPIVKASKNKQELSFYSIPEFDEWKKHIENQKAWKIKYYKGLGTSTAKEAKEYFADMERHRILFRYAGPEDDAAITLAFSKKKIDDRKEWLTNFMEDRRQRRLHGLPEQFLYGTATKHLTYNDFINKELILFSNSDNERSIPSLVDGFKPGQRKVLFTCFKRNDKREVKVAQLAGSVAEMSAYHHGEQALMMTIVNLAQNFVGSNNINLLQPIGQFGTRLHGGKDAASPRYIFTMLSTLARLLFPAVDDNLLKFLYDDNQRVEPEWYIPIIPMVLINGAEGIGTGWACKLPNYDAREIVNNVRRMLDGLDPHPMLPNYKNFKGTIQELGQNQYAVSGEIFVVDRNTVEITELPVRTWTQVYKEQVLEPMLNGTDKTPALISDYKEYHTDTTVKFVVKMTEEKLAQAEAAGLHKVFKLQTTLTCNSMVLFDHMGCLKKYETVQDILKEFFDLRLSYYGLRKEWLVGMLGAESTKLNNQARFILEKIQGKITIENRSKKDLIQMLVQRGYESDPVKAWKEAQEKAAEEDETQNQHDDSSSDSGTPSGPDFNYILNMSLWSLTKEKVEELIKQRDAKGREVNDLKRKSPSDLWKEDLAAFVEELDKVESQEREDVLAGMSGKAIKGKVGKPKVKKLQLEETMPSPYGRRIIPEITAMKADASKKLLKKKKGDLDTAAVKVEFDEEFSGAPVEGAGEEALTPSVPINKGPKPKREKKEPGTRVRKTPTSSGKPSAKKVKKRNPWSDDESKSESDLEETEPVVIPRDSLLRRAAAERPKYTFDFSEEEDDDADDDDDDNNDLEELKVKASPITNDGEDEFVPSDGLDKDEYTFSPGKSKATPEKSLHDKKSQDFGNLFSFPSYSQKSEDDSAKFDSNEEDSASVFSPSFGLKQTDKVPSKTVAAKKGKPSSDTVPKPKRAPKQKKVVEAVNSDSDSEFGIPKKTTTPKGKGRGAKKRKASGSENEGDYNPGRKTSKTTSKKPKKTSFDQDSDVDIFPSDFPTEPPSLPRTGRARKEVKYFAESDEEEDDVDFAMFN
UniProt O60603, whole entry, looked up: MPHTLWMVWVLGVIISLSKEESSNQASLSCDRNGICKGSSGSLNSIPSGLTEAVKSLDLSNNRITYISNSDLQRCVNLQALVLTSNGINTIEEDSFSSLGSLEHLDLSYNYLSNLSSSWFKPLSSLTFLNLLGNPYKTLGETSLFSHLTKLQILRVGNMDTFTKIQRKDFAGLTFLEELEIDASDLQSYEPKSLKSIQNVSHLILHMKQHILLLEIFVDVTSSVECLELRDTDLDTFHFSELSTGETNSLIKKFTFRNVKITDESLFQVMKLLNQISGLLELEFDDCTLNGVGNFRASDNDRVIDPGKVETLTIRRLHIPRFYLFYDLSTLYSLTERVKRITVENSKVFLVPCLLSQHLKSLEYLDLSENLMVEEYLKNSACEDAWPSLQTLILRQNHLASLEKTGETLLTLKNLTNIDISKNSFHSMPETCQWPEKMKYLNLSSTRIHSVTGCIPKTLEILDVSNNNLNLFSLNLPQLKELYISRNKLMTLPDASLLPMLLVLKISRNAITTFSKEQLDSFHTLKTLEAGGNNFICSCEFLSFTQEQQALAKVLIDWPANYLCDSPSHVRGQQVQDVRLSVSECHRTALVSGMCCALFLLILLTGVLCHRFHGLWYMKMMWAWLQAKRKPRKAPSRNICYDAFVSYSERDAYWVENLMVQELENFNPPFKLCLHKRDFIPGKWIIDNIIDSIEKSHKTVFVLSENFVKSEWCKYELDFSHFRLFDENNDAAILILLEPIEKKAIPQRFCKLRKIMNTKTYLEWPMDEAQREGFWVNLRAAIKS
UniProt Q99805: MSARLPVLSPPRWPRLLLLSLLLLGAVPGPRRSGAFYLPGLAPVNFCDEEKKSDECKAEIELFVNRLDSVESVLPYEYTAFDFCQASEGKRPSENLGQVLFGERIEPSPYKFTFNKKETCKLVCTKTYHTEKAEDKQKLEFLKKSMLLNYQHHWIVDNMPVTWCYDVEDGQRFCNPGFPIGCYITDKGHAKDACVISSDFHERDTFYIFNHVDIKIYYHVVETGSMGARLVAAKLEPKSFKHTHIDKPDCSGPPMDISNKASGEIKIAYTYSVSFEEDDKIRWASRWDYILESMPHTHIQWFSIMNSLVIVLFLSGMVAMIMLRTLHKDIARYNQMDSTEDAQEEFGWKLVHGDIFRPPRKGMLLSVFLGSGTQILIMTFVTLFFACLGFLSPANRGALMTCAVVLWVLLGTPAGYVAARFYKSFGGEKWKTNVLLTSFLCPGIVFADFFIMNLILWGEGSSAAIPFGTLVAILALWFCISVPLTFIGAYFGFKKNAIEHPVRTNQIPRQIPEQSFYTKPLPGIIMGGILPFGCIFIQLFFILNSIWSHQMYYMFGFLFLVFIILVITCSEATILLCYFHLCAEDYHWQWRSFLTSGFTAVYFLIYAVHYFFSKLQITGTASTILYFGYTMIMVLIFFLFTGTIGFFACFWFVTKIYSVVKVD
UniProt P11387: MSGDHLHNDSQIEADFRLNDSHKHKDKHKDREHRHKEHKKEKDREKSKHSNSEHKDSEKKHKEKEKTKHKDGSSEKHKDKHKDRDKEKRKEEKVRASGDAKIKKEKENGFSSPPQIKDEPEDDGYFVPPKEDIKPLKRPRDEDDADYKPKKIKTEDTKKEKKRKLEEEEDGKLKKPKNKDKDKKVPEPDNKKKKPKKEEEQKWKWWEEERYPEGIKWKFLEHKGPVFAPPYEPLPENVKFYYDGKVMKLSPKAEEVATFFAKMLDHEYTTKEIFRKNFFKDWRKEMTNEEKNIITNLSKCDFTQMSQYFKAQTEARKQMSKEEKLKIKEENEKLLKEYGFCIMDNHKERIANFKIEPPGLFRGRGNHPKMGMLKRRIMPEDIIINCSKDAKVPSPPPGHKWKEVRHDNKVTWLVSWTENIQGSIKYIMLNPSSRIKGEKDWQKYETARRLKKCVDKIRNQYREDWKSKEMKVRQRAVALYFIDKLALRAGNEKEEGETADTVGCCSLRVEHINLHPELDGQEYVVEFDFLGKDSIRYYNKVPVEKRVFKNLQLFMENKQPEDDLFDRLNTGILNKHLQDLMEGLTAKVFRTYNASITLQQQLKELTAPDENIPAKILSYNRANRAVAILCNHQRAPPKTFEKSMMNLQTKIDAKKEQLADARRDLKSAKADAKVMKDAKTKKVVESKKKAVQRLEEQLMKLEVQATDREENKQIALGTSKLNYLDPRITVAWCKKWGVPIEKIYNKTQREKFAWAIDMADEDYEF
UniProt Q8NBN3: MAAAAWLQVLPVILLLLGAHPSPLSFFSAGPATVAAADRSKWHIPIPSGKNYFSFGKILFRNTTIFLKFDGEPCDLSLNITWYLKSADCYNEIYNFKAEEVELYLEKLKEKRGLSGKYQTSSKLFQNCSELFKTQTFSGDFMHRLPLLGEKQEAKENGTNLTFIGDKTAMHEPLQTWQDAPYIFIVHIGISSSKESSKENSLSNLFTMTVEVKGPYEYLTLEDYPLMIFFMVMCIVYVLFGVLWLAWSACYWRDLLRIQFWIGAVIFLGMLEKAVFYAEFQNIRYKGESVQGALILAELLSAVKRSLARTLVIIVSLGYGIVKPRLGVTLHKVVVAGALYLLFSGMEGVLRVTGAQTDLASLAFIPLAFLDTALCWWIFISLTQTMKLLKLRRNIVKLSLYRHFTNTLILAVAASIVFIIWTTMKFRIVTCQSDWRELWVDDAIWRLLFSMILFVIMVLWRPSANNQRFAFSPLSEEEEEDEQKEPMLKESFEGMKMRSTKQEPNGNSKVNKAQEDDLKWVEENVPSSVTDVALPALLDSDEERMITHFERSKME
UniProt P60174, whole entry, looked up: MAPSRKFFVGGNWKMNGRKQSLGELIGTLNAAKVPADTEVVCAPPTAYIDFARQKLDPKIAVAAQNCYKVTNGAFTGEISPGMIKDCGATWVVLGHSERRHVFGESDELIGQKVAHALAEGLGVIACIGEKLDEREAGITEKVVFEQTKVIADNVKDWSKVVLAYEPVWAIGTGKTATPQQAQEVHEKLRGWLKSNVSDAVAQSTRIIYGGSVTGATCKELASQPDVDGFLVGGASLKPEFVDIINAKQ

Target | probe-labelled cysteine peptide fold change
TONSL_Q96HA7_561_DYCGWTPLHEACNYGHLEIVR (UniProt Q96HA7) | 0.227
TMEM120B_A0PK00_43_QKLEELAALQTLCSSSISK (UniProt A0PK00) | 0.0405
TOP2A_P11388_1145_EKKDELCR (UniProt P11388) | -0.169
TNFAIP2_Q03169_356_LDGHCHSELAIDIIQITSQAQAK (UniProt Q03169) | -0.0614
TOP2B_Q02880_426_AASNCGIVESILNWVK (UniProt Q02880) | -0.047
TLR2_O60603_353_VFLVPCLLSQHLK (UniProt O60603) | -0.00495
TMEM209_Q96SK2_495_TFTSQHFVQTPNKPDVTNENVFCIYQSAINPPHYELIYQR (UniProt Q96SK2) | 0.145
TM9SF2_Q99805_164_SMLLNYQHHWIVDNMPVTWCYDVEDGQR (UniProt Q99805) | -0.00973
TOP1_P11387_733_ITVAWCK (UniProt P11387) | 0.107
TMEM87A_Q8NBN3_89_SADCYNEIYNFK (UniProt Q8NBN3) | -0.0936
TNFAIP8_O95379_165_VNNVFDHFSDCEFLAALYNPFGNFKPHLQK (UniProt O95379) | -0.156
TOP2B_Q02880_204_FTVETACK (UniProt Q02880) | -0.203
TOP2B_Q02880_271_RAYDLAGSCR (UniProt Q02880) | 0.0555
TPI1_P60174_124_DCGATWVVLGHSERR (UniProt P60174) | -0.0531
TP53BP1_Q12888_712_ECSEAMEVETSVISIDSPQK (UniProt Q12888) | -0.03
